Experimental data published in PMC2973830.
These are yes or no findings as the source states them, for the method shown. Some entries that bind do so weakly or less than the wild type. Sequences can lack the tags named with a protein.

T1: DIM-7 (as purified in the unpublished experiment) (N. crassa) (UniProt Q1K7K7)
T1 sequence: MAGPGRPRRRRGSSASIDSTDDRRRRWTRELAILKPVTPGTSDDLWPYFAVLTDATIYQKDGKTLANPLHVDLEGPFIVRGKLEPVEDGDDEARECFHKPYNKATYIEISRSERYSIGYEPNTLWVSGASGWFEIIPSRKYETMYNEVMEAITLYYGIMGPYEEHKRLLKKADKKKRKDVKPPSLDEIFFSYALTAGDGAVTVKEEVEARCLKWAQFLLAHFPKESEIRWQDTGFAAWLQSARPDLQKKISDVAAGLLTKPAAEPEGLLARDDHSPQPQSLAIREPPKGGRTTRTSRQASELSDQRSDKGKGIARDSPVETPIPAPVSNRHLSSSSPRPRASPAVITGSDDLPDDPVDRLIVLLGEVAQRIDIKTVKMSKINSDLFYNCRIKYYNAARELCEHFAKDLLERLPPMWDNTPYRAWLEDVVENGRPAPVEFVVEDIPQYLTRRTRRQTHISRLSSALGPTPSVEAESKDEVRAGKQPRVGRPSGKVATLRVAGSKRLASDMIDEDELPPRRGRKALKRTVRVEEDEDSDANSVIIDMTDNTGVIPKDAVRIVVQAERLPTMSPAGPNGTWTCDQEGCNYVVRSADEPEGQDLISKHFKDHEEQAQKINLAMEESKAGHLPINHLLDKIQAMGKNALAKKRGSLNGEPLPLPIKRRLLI


Target: T1, DIM-7 (as purified in the unpublished experiment) (N. crassa)
Assay: co-purification (method not told); histones co-purified with DIM-7; unpublished data of Z. Lewis and E. Selker

Row | binding | Molecule
1 | binds | histone H2A (from UniProt Q8X132 1-134)
2 | binds | histone H2B (protein, UniProt P37210 1-137) MPPKPADKKPASKAPATASKAPEKKDAGKKTAASGDKKKRTKARKETYSSYIYKVLKQVHPDTGISNRAMSILNSFVNDIFERVATEASKLAAYNKKSTISSREIQTSVRLILPGELAKHAVSEGTKAVTKYSSSTK
